For 2 molecules, binding results are on record in publication PMC13484441.

Test [1] addresses T1, 3X-FLAG-U2AF1-HALO (recombinant), Q01081.
T1 chain: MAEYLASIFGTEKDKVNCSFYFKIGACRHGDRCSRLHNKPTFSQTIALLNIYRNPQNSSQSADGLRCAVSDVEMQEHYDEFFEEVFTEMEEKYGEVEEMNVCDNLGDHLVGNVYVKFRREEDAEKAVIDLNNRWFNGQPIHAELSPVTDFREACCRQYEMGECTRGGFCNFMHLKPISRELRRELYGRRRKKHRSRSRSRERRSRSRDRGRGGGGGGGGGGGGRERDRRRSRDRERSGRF
Description: tandem affinity co-purification (HisTrap IMAC, then anti-FLAG M2 beads); the two subunits co-expressed in Tni-FNL insect cells; lysate loaded on a HisTrap HP column in 500 mM NaCl, eluted with imidazole, then anti-FLAG M2 magnetic beads, eluted with 3xflag peptide. The note with it: remark: other sources report otherwise.

Test [2] deals with T2, 3X-FLAG-U2AF1 (full length, recombinant), Q01081.
T2 chain: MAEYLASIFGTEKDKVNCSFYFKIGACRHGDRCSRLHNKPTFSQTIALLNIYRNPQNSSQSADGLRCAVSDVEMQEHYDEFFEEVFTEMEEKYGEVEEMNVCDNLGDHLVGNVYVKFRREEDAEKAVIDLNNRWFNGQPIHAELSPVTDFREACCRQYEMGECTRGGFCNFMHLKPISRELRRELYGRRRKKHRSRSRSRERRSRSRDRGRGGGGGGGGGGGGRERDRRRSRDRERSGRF
The description is as above. To be noted: remark: other sources report otherwise.

Test [3] has as its target T3, U2AF1-3XFLAG (endogenously tagged U2AF1) (human (endogenous in HBEC)) (UniProt Q01081).
T3 sequence: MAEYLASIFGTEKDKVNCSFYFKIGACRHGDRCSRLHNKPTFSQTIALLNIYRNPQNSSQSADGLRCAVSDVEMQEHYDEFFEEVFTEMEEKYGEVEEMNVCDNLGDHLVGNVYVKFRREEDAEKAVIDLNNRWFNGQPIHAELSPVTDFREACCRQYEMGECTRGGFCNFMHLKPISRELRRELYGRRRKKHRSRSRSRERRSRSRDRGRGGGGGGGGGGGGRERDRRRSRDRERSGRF
Description: co-IP; U2AF1-FLAG IP followed by Western blot for DDX42. (In general: A western blot detects proteins with antibodies after separation by electrophoresis.)

These are yes or no findings as the source states them, for the method shown. For part of these data: In cells and extracts the contact can be indirect. Some entries that bind do so weakly or less than the wild type. Sequences can lack the tags named with a protein.

B1: 6X-HIS-U2AF2 (full length, recombinant), P26368 1-475 (protein)
chain: MSDFDEFERQLNENKQERDKENRHRKRSHSRSRSRDRKRRSRSRDRRNRDQRSASRDRRRRSKPLTRGAKEEHGGLIRSPRHEKKKKVRKYWDVPPPGFEHITPMQYKAMQAAGQIPATALLPTMTPDGLAVTPTPVPVVGSQMTRQARRLYVGNIPFGITEEAMMDFFNAQMRLGGLTQAPGNPVLAVQINQDKNFAFLEFRSVDETTQAMAFDGIIFQGQSLKIRRPHDYQPLPGMSENPSVYVPGVVSTVVPDSAHKLFIGGLPNYLNDDQVKELLTSFGPLKAFNLVKDSATGLSKGYAFCEYVDINVTDQAIAGLNGMQLGDKKLLVQRASVGAKNATLVSPPSTINQTPVTLQVPGLMSSQVQMGGHPTEVLCLMNMVLPEELLDDEEYEEIVEDVRDECSKYGLVKSIEIPRPVDGVEVPGCGKIFVEFTSVFDCQKAMQGLTGRKFANRVVVTKYCDPDSYHRRDFW
modifications: here or on the partner: JFX650 HALO Tag ligand on the HALO tag
As to B1, the binding entry in test [1] and in test [2] was “binds” in each case.

B2: DDX42 (protein, UniProt Q86XP3 1-938)
chain: MNWNKGGPGTKRGFGFGGFAISAGKKEEPKLPQQSHSAFGATSSSSGFGKSAPPQLPSFYKIGSKRANFDEENAYFEDEEEDSSNVDLPYIPAENSPTRQQFHSKPVDSDSDDDPLEAFMAEVEDQAARDMKRLEEKDKERKNVKGIRDDIEEEDDQEAYFRYMAENPTAGVVQEEEEDNLEYDSDGNPIAPTKKIIDPLPPIDHSEIDYPPFEKNFYNEHEEITNLTPQQLIDLRHKLNLRVSGAAPPRPGSSFAHFGFDEQLMHQIRKSEYTQPTPIQCQGVPVALSGRDMIGIAKTGSGKTAAFIWPMLIHIMDQKELEPGDGPIAVIVCPTRELCQQIHAECKRFGKAYNLRSVAVYGGGSMWEQAKALQEGAEIVVCTPGRLIDHVKKKATNLQRVSYLVFDEADRMFDMGFEYQVRSIASHVRPDRQTLLFSATFRKKIEKLARDILIDPIRVVQGDIGEANEDVTQIVEILHSGPSKWNWLTRRLVEFTSSGSVLLFVTKKANAEELANNLKQEGHNLGLLHGDMDQSERNKVISDFKKKDIPVLVATDVAARGLDIPSIKTVINYDVARDIDTHTHRIGRTGRAGEKGVAYTLLTPKDSNFAGDLVRNLEGANQHVSKELLDLAMQNAWFRKSRFKGGKGKKLNIGGGGLGYRERPGLGSENMDRGNNNVMSNYEAYKPSTGAMGDRLTAMKAAFQSQYKSHFVAASLSNQKAGSSAAGASGWTSAGSLNSVPTNSAQQGHNSPDSPVTSAAKGIPGFGNTGNISGAPVTYPSAGAQGVNNTASGNNSREGTGGSNGKRERYTENRGSSRHSHGETGNRHSDSPRHGDGGRHGDGYRHPESSSRHTDGHRHGENRHGGSAGRHGENRGANDGRNGESRKEAFNRESKMEPKMEPKVDSSKMDKVDSKTDKTADGFAVPEPPKRKKSRWDS
On to B2, for which the binding entry in test [3] is “binds”.
